Substitutions are numbered along the chain they refer to. The exact form of at least one protein or probe is not confirmed. Tags and fusion partners may be left off the protein sequences shown.
Experiments:
[1] = molecular target: T1, Hel308 Mbu + 5th domain Hel308 Hvo (Methanococcoides burtonii / Haloferax volcanii) (UniProt Q12WZ6); assay: binding assay; conditions: four 2'-O-methyl uracil at 5' end of SEQ 70; MspA nanopore controlled DNA movement; 100 nM enzyme, 400 mM NaCl, 1 mM ATP, 1 mM MgCl2, +140 mV; purified recombinant protein; protein details: 5th domain of Hel308 Hvo fused to C-terminus; label: 3' cholesterol TEG on SEQ 71
T1 sequence: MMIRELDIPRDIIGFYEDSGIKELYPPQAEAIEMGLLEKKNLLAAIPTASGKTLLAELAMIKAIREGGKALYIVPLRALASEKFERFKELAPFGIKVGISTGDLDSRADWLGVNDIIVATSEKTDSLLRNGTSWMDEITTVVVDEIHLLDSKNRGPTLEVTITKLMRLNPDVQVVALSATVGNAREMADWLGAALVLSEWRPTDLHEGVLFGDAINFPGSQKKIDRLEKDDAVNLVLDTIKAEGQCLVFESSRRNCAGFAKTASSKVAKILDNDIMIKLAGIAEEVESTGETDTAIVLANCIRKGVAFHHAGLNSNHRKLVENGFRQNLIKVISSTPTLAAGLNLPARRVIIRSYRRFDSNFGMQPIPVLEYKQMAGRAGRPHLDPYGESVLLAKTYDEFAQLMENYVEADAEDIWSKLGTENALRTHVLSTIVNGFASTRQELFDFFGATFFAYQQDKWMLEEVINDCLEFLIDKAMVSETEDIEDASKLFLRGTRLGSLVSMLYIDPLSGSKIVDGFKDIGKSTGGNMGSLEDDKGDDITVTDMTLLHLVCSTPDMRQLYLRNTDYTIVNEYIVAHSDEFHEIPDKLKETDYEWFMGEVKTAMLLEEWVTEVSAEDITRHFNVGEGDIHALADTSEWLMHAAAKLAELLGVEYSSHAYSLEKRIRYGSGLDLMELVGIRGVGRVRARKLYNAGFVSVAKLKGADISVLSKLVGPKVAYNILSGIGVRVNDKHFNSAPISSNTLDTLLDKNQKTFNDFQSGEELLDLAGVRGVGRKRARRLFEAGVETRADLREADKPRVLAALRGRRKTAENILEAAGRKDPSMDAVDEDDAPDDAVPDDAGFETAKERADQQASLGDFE

[2] = molecular target: T2, Hel308 Mbu Q442C 2 kDa PEG homodimer (Methanococcoides burtonii) (UniProt Q12WZ6); assay: binding assay; conditions: four 2'-O-methyl uracil at 5' end of SEQ 70; MspA nanopore controlled DNA movement; about 1 nM enzyme, 400 mM KCl, 1 mM ATP, 1 mM MgCl2, +180 mV; purified recombinant protein; label: 3' cholesterol TEG on SEQ 71
T2 sequence (limits assumed): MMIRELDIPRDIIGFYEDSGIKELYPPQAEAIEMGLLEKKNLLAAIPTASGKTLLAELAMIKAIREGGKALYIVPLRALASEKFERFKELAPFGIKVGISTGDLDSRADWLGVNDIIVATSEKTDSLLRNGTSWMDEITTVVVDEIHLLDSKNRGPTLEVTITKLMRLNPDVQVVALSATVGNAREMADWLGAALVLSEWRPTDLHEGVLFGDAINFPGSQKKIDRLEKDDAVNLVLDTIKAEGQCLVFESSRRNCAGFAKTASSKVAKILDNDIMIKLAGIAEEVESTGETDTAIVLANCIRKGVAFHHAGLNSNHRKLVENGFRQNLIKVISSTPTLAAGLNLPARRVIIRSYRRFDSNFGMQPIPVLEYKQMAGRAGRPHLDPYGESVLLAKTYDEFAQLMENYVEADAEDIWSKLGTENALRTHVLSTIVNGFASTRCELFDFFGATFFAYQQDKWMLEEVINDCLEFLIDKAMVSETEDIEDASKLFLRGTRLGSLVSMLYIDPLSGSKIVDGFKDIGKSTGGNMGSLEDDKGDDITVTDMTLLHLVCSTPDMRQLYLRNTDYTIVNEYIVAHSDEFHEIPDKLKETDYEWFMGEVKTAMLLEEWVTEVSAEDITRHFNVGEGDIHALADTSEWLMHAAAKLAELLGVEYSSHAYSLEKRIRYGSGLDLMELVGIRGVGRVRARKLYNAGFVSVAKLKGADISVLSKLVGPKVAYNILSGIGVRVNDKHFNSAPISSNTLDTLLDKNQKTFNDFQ

[3] = molecular target: T3, Hel308 Mbu Q442C 3.4 kDa PEG homodimer (Methanococcoides burtonii) (UniProt Q12WZ6); assay: binding assay; conditions: four 2'-O-methyl uracil at 5' end of SEQ 70; MspA nanopore controlled DNA movement; about 1 nM enzyme, 400 mM KCl, 1 mM ATP, 1 mM MgCl2, +180 mV; purified recombinant protein; label: 3' cholesterol TEG on SEQ 71
T3 sequence (limits assumed): T2 sequence (limits assumed)

[4] = molecular target: T4, Hel308 Mbu A700C 2 kDa PEG homodimer (Methanococcoides burtonii) (UniProt Q12WZ6); assay: activity assay; conditions: four 2'-O-methyl uracil at 5' end of SEQ 70; MspA nanopore; percent of helicase-controlled movements reaching polyT; 10 nM enzyme, 1 M KCl, 1 mM ATP, 10 mM MgCl2, +120 mV; purified recombinant protein; label: 3' cholesterol TEG on SEQ 71
T4 sequence (limits assumed): T2 sequence (limits assumed) with C442Q, A700C

[5] = molecular target: T5, Hel308 Mbu monomer (Methanococcoides burtonii) (UniProt Q12WZ6); assay: activity assay; conditions: four 2'-O-methyl uracil at 5' end of SEQ 70; MspA nanopore; percent of helicase-controlled movements reaching polyT; 100 nM enzyme, 1 M KCl, 1 mM ATP, 10 mM MgCl2, +120 mV; purified recombinant protein; label: 3' cholesterol TEG on SEQ 71
T5 sequence (limits assumed): T2 sequence (limits assumed) with C442Q

**Q.** Does “TTTTTTTTTTTTTTTTTTTTTTTTTTTTTTTTTTTTTTTTTTTTTGCCATCAGATTGTGTTTGTTAGTCGCTGGTTGTTTCTGTTGGTGCTGATATTGCTTTTGATGCCGACCCTAAATTTTTTGCCTGTTTGGTTCGCTTTGAGTCTTCTTCGGTTCCGACTACCCTCCCGACTGCCTATGATGTTTATCCTTTGAATGGTCGCCATGATGGTGGTTATTATACCGTCAAGGACTGTGTGACTATTGACGTCCTTCCCCGTACGCCGGGCAATAACGTTTATGTTGGTTTCATGGTTTGGTCTAACTTTACCGCTACTAAATGCCGCGGATTGGTTTCGCTGAATCAGGTTATTAAAGAGATTATTTGTCTCCAGCCACTTAAGTGAGGTGATTTATGTTTGGTGCTATTGCTGGCGGTATTGCTTCTGCTCTTGCTGGTGGCGCCATGTCTAAATTGTTTGGAGGCGGTCTTTTTCCCCCTTTTTCCCCCTTTTTCCCCCTTTTTCCCCCTTTTTCCCCC / AGCGACTAACAAACACAATCTGATGGCTTTTTTTTTTTTTTTTTTTTTTTTTTTTTT” bind [1]?
**A.** binds

**Q.** Does “TTTTTTTTTTTTTTTTTTTTTTTTTTTTTTTTTTTTTTTTTTTTTGCCATCAGATTGTGTTTGTTAGTCGCTGGTTGTTTCTGTTGGTGCTGATATTGCTTTTGATGCCGACCCTAAATTTTTTGCCTGTTTGGTTCGCTTTGAGTCTTCTTCGGTTCCGACTACCCTCCCGACTGCCTATGATGTTTATCCTTTGAATGGTCGCCATGATGGTGGTTATTATACCGTCAAGGACTGTGTGACTATTGACGTCCTTCCCCGTACGCCGGGCAATAACGTTTATGTTGGTTTCATGGTTTGGTCTAACTTTACCGCTACTAAATGCCGCGGATTGGTTTCGCTGAATCAGGTTATTAAAGAGATTATTTGTCTCCAGCCACTTAAGTGAGGTGATTTATGTTTGGTGCTATTGCTGGCGGTATTGCTTCTGCTCTTGCTGGTGGCGCCATGTCTAAATTGTTTGGAGGCGGTCTTTTTCCCCCTTTTTCCCCCTTTTTCCCCCTTTTTCCCCCTTTTTCCCCC / AGCGACTAACAAACACAATCTGATGGCTTTTTTTTTTTTTTTTTTTTTTTTTTTTTT” bind [2]?
**A.** binds

**Q.** Does “TTTTTTTTTTTTTTTTTTTTTTTTTTTTTTTTTTTTTTTTTTTTTGCCATCAGATTGTGTTTGTTAGTCGCTGGTTGTTTCTGTTGGTGCTGATATTGCTTTTGATGCCGACCCTAAATTTTTTGCCTGTTTGGTTCGCTTTGAGTCTTCTTCGGTTCCGACTACCCTCCCGACTGCCTATGATGTTTATCCTTTGAATGGTCGCCATGATGGTGGTTATTATACCGTCAAGGACTGTGTGACTATTGACGTCCTTCCCCGTACGCCGGGCAATAACGTTTATGTTGGTTTCATGGTTTGGTCTAACTTTACCGCTACTAAATGCCGCGGATTGGTTTCGCTGAATCAGGTTATTAAAGAGATTATTTGTCTCCAGCCACTTAAGTGAGGTGATTTATGTTTGGTGCTATTGCTGGCGGTATTGCTTCTGCTCTTGCTGGTGGCGCCATGTCTAAATTGTTTGGAGGCGGTCTTTTTCCCCCTTTTTCCCCCTTTTTCCCCCTTTTTCCCCCTTTTTCCCCC / AGCGACTAACAAACACAATCTGATGGCTTTTTTTTTTTTTTTTTTTTTTTTTTTTTT” bind [3]?
**A.** binds

**Q.** And the activity on this sequence [4]?
**A.** 47%

**Q.** What about the activity on this sequence [5] of the same sequence?
**A.** 37%

Reference: patent US20150218629
